Test system: L. donovani-infected B10R cells
Assay: Untargeted proteomics of L. donovani-infected B10R cells treated and untreated with MS26Et3
Type: cell-based, mouse / Leishmania donovani
Procedure: B10R culture cells (infected or uninfected with Leishmanaia donovani) were collected and washed twice in cold PBS. The cell pellets (~10^6 cells/pellet) were snap-frozen and stored at −80 °C. To extract the proteins, pellets were thawed, and the cells were resuspended in 200 µL buffer containing 6 M urea, 7% SDS, 50 mM TEAB, protease inhibitor cocktail (Roche, cat. no. A32963), phosphatase inhibitor (Roche, cat. no. A32957), with pH adjusted to 8.1 with phosphoric acid. The cells were then lysed using a sonicating probe 200 µL. The samples were reduced in 500 mM DTT at 47 °C for 30 min and alkylated in 500 mM IAA in the absence of light, at room temperature for 45 min, followed by quenching in 500 mM DTT for 5 min. The samples were then acidified with 12% phosphoric acid and mixed in a 7:1 ratio with binding buffer containing 90% methanol, 50 mM TEAB, pH 7.1, adjusted with phosphoric acid and loaded on to S-Trap columns (Protifi). […] The concentration of desalted peptides was determined and 50 µg aliquots of each sample were dried in a speed vacuum concentrator. […]
Basic pH reverse-phase LC and data acquisition through LC–MS2/MS3 were performed as previously described. […] Fractions were then analyzed using tandem mass spectrometry (MS2/MS3) on an Orbitrap Fusion mass spectrometer (ThermoFisher, Waltham, MA, USA) with an in-line EASY-nLC 1000 instrument (ThermoFisher, Waltham, MA, USA). […]

In the case of `C[CH2][Sn]([CH2]C)([CH2]C)[O]C(=O)CCC(=O)Nc1ccc(OC)cc1` [MS26Et3], the “L. donovani protein Rab7 (Uniprot B1NI99), change in abundance” value (LD proteins detected in L. donovani-infected B10R cells, treated vs untreated with MS26Et3, sheet "LD Proteins Detected") was “Rab7 Only Significant Changed…” and the “number of host proteins decreased in abundance” value (infected B10R cells exposed to compound vs not exposed) was 238.

Source: PMC9785441, “A Broad Spectrum Antiparasitic Activity of Organotin (IV) Derivatives and Its Untargeted Proteomic Profiling Using Leishmania donovani” (Pathogens, 2022)
